Results deposited as PubChem BioAssay AID686937 (Drosophila RNAi Screening Center, 2013)

Screen: 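Knock-downs that reduce output of a secreted reporter enzyme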 (primary screen)
Cells: Drosophila S2 cells expressing secreted horseradish peroxidase
Reagent: long dsRNA against Drosophila genes
Duration: about 5.5 days (5 days dsRNA, then 12 h reporter induction)
Treatment: reporter expression induced after 5 days of dsRNA, read 12 h later; inducer not stated
Read-out: 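After 5 days of dsRNA and 12 h of reporter induction, medium peroxidase read by chemiluminescence and scored as per-plate z-score; higher values mean more reporter released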
Scale: z-score: higher = more reporter secreted into medium
In all, the deposit lists about 23,000 reagents; this is an unselected part of those that have a named target and a result. 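Reduced-secretion tags in replicate 1 do not always agree with the z-scores; no criterion for assigning the tags was given.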 The record does not give: the amount of reagent.

Spred [DRSC05976] → z-score, replicate 1: 0.23; z-score, replicate 2: 0.33
CG17801 [DRSC15273] → z-score, replicate 1: 0.45; z-score, replicate 2: -0.24
CG10194 [DRSC02025] → z-score, replicate 1: 0.27; z-score, replicate 2: 0.13
Neos [DRSC11235] → z-score, replicate 1: 0.74; z-score, replicate 2: 0.69
CG1999 [DRSC18199] → z-score, replicate 1: 0.17; z-score, replicate 2: 0.42
wun [DRSC07719] → z-score, replicate 1: 0.11; z-score, replicate 2: 0.28
CG11322 [DRSC02142] → z-score, replicate 1: -0.08; z-score, replicate 2: 0.16

Next part (2 carried over from the part before).
wun [DRSC07719] → z-score, replicate 1: 0.11; z-score, replicate 2: 0.28
CG11322 [DRSC02142] → z-score, replicate 1: -0.08; z-score, replicate 2: 0.16
CG12065 [DRSC17798] → z-score, replicate 1: 0.23; z-score, replicate 2: 0.26
CG12065 [DRSC17799] → z-score, replicate 1: 0.2; z-score, replicate 2: 0.46
l(2)SH0834 [DRSC02854] → z-score, replicate 1: -0.24; z-score, replicate 2: -0.44
CG6040 [DRSC15954] → z-score, replicate 1: 0.39; z-score, replicate 2: 0.29
tsh [DRSC03740] → z-score, replicate 1: -0.01; z-score, replicate 2: 0.12
CG32647 [DRSC19690] → z-score, replicate 1: 0.27; z-score, replicate 2: 0.15
CG32647 [DRSC19878] → z-score, replicate 1: 0.1; z-score, replicate 2: -0.57
Yip1d1 [DRSC02166] → z-score, replicate 1: -1.15; z-score, replicate 2: -1.44
Alp6 [DRSC06710] → z-score, replicate 1: 0.49; z-score, replicate 2: 0.44
